# Data reported in the supplement of paper PMC10032668.
# The chains behind the UniProt entries cited, without tags or fusion partners.
# EIF3B, P55884, UniProt P55884, whole entry: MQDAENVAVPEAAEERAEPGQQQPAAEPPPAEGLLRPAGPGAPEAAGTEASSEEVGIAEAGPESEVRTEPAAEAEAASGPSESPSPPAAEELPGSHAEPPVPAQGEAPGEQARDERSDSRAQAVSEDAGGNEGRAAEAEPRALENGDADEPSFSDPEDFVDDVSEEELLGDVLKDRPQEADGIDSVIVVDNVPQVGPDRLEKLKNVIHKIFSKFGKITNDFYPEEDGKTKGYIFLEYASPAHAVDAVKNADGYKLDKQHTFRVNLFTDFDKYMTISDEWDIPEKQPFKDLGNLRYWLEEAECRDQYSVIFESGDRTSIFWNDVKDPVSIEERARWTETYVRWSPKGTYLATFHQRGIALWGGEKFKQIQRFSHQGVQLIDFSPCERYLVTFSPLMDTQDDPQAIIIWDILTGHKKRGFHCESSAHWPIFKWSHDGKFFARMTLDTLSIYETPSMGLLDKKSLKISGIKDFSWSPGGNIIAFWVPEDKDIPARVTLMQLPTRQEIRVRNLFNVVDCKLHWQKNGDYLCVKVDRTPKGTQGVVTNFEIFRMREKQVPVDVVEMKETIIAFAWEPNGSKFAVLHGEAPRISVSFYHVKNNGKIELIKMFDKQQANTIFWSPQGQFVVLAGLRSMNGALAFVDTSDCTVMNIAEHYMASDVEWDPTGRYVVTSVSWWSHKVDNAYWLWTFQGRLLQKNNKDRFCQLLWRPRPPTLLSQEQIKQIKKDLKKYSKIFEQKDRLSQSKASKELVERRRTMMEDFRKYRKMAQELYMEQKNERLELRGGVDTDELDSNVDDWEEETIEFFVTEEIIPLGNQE
# EIF3J, O75822, UniProt O75822, whole entry: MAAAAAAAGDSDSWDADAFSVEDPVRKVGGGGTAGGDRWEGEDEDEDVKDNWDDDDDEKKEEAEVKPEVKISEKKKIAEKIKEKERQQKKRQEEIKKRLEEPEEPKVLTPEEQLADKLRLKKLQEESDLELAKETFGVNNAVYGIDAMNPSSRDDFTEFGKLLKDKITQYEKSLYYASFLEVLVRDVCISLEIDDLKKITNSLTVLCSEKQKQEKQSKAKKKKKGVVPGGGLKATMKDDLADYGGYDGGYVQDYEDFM
# KPNA3, O00505, UniProt O00505, whole entry: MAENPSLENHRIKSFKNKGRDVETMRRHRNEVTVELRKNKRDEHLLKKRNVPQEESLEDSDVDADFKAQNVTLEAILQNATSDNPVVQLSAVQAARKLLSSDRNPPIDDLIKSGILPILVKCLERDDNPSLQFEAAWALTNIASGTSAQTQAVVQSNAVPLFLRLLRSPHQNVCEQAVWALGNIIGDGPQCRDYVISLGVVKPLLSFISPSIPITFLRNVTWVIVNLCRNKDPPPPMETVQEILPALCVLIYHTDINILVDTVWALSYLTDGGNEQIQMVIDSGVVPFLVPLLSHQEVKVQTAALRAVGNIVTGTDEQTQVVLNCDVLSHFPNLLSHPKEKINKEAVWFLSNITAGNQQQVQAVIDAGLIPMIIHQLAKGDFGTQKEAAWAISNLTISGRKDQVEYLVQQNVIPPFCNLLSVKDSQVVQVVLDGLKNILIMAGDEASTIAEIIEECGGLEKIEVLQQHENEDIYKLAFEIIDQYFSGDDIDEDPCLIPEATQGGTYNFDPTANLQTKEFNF
# PFDN6, O15212, UniProt O15212, whole entry: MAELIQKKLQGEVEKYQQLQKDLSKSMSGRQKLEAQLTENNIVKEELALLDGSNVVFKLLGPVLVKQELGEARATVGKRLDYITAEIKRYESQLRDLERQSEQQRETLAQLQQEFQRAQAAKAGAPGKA
# RANBP1, P43487, UniProt P43487, whole entry: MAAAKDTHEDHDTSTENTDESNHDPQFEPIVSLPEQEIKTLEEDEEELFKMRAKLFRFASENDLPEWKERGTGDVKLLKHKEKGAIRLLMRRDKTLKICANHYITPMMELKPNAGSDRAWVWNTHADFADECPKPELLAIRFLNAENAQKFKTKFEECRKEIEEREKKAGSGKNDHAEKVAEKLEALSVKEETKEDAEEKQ
# ECPAS, Q5VYK3, UniProt Q5VYK3, whole entry: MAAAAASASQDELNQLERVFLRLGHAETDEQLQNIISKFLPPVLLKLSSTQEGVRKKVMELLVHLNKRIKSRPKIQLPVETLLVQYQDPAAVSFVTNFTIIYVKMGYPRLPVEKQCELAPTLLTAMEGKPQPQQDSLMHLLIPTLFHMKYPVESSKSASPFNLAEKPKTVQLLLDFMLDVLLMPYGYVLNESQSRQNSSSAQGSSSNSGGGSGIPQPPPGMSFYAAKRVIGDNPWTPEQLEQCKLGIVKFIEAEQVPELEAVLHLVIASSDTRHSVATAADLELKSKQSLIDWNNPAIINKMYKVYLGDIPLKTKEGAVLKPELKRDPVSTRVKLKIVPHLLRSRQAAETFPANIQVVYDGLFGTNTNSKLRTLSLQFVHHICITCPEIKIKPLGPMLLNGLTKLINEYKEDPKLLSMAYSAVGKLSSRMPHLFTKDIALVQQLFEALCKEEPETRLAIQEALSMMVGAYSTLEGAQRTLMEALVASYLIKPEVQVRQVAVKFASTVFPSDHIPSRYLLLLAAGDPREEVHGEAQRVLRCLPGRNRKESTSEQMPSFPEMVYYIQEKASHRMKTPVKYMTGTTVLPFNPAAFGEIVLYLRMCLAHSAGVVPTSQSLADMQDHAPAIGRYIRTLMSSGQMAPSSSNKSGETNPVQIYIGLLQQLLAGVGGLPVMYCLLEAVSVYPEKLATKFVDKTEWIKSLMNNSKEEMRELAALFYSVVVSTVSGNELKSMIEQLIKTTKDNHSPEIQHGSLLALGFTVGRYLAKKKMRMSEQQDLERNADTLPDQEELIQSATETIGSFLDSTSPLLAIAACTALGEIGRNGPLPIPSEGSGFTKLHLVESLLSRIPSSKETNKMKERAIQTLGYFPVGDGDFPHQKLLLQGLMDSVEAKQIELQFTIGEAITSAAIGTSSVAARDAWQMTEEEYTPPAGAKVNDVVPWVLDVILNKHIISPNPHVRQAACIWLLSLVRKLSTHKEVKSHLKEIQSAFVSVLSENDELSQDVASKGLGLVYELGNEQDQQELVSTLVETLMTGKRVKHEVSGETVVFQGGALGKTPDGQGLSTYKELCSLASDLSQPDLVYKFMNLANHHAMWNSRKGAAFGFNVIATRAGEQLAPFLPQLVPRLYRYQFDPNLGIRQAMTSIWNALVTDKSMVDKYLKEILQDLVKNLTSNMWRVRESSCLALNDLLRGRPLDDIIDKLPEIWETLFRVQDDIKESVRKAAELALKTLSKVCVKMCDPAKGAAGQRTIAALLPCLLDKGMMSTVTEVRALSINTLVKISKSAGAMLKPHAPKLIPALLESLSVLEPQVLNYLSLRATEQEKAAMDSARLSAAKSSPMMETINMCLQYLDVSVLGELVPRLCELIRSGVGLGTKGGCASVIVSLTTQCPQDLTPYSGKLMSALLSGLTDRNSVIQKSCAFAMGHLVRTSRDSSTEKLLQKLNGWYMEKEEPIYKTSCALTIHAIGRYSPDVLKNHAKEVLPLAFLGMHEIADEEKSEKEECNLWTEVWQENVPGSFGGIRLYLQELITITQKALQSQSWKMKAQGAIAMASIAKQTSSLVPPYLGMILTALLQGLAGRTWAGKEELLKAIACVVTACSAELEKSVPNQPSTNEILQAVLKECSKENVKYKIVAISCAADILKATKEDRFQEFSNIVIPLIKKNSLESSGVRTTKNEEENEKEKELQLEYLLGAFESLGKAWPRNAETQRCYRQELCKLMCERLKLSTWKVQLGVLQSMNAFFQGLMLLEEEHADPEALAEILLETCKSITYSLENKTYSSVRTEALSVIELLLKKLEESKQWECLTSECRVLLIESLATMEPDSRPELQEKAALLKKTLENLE
# MYH9, P35579, UniProt P35579, whole entry: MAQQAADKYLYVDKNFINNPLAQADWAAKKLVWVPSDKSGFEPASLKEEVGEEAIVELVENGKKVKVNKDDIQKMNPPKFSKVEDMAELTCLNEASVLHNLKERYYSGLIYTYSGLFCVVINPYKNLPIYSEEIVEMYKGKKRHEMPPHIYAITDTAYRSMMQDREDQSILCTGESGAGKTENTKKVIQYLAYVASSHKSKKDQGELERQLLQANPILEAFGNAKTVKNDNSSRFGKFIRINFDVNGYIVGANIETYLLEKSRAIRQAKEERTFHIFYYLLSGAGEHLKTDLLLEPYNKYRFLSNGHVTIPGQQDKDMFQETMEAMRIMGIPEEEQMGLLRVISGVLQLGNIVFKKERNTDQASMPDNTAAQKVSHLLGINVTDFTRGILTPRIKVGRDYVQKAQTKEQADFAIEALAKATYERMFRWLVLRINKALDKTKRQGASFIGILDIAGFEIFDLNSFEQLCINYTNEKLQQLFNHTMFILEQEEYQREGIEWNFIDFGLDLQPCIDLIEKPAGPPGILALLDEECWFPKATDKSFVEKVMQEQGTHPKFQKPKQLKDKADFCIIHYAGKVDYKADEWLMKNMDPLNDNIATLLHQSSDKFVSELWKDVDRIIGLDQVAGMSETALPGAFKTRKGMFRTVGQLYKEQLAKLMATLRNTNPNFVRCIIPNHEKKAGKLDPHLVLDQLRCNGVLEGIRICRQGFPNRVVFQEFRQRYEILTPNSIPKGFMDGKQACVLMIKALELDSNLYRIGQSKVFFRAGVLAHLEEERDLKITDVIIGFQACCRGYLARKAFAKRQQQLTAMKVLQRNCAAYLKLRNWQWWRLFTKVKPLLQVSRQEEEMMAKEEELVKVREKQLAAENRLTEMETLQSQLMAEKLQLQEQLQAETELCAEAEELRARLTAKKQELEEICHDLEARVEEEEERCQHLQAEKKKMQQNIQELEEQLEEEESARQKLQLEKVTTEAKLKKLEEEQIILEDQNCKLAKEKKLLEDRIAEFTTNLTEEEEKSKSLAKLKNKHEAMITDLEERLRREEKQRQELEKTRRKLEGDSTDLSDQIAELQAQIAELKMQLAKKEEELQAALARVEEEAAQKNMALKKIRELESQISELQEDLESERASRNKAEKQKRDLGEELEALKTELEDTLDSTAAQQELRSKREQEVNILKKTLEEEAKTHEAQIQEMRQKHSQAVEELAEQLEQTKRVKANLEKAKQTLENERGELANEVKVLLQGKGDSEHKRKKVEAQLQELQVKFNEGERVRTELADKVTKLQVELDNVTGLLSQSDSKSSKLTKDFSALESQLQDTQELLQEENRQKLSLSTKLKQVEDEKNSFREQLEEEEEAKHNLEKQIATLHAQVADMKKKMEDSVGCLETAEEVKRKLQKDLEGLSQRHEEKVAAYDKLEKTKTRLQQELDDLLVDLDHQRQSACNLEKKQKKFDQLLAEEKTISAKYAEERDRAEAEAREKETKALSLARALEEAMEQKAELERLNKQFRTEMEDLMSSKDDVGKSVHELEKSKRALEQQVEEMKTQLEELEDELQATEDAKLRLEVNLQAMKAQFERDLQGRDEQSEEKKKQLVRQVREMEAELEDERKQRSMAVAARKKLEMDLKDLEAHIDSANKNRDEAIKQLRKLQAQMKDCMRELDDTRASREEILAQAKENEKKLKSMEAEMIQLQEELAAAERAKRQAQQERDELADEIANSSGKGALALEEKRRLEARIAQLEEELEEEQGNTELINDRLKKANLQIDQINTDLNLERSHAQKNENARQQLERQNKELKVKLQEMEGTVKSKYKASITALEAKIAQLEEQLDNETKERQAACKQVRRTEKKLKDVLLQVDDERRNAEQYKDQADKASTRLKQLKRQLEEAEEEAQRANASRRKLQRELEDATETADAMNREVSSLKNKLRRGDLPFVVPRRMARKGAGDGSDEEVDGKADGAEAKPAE
# AHSA1, O95433, UniProt O95433, whole entry: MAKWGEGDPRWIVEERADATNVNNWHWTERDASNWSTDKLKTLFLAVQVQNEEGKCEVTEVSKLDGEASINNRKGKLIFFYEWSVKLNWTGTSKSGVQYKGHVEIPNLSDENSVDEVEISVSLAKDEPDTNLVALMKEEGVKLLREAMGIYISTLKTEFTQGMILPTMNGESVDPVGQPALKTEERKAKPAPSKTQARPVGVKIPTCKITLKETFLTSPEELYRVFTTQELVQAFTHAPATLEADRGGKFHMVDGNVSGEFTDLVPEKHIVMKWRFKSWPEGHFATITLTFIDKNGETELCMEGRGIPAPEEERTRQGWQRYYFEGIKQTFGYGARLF
# Some of the results follow. The list holds hits alone, and they repeat only in part.
# Assays:
# Assay in all cases: PRISMA enrichment of interactor (LFQ) in peptide spot vs all other peptide spots (log2 fold change); higher = stronger / more specific binding of the interactor to the peptide
# [1] = biological target: AHCY, P23526
# Procedure: (§1)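 PRISMA: 15-aa overlapping tiles (offset 8 aa) of 60 microproteins, plus SOS1/GLUT1 control peptides, were spot-synthesized on cellulose membranes in triplicate. Membranes were incubated with benzonase-treated HEK293T lysate, and bound proteins were identified by LC-MS/MS with LFQ. Enrichment is the log2 fold change of each protein in one spot versus all other spots. Only interactors passing the significance cutoff are listed.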
# [2] = biological target: C19orf47, Q8N9M1
# Procedure: as §1
# [3] = biological target: DHX36, Q9H2U1
# Procedure: as §1
# [4] = biological target: EIF3B, P55884
# Procedure: as §1
# [5] = biological target: EIF3J, O75822
# Procedure: as §1
# [6] = biological target: IDH3A, P50213
# Procedure: as §1
# [7] = biological target: KPNA3, O00505
# Procedure: as §1
# [8] = biological target: LRRC40, Q9H9A6
# Procedure: as §1
# [9] = biological target: MRPL23, Q16540
# Procedure: as §1
# [10] = biological target: MRPS5, P82675
# Procedure: as §1
# [11] = biological target: MRPS7, Q9Y2R9
# Procedure: as §1
# [12] = biological target: PFDN6, O15212
# Procedure: as §1
# [13] = biological target: POLR2G, P62487
# Procedure: as §1
# [14] = biological target: RANBP1, P43487
# Procedure: as §1
# [15] = biological target: SHQ1, Q6PI26
# Procedure: as §1
# [16] = biological target: TOP2B, Q02880
# Procedure: as §1
# [17] = biological target: AHNAK, Q09666
# Procedure: as §1
# [18] = biological target: AP3D1, O14617
# Procedure: as §1
# [19] = biological target: ASNS, P08243
# Procedure: as §1
# [20] = biological target: CDC42SE2, Q9NRR3
# Procedure: as §1
# [21] = biological target: CEP290, O15078
# Procedure: as §1
# [22] = biological target: CREB1, P16220
# Procedure: as §1
# [23] = biological target: DSC1, Q08554
# Procedure: as §1
# [24] = biological target: ECPAS, Q5VYK3
# Procedure: as §1
# [25] = biological target: GABARAPL2, P60520
# Procedure: as §1
# [26] = biological target: KARS, Q15046
# Procedure: as §1
# [27] = biological target: MLIP, Q5VWP3
# Procedure: as §1
# [28] = biological target: MRPS9, P82933
# Procedure: as §1
# [29] = biological target: MYH9, P35579
# Procedure: as §1
# [30] = biological target: NOL7, Q9UMY1
# Procedure: as §1
# [31] = biological target: PGRMC2, O15173
# Procedure: as §1
# [32] = biological target: PRDX6, P30041
# Procedure: as §1
# [33] = biological target: PRRC2A, P48634
# Procedure: as §1
# [34] = biological target: PSRC1, Q6PGN9
# Procedure: as §1
# [35] = biological target: RTCB, Q9Y3I0
# Procedure: as §1
# [36] = biological target: SDCBP, O00560
# Procedure: as §1
# [37] = biological target: SUGT1, Q9Y2Z0
# Procedure: as §1
# [38] = biological target: TIMM50, Q3ZCQ8
# Procedure: as §1
# [39] = biological target: VPS25, Q9BRG1
# Procedure: as §1
# [40] = biological target: XPO7, Q9UIA9
# Procedure: as §1
# [41] = biological target: AHSA1, O95433
# Procedure: as §1
# [42] = biological target: FANCD2, Q9BXW9
# Procedure: as §1
# [43] = biological target: HAL, P42357
# Procedure: as §1
# [44] = biological target: PPIL1, Q9Y3C6
# Procedure: as §1
# [45] = biological target: RCN2, Q14257
# Procedure: as §1
binder,measurement,setting,value
RLFGQQQRATAAPLR [RNF10],PRISMA enrichment of interactor (log2),[1],6.29
same,PRISMA enrichment of interactor (log2),[2],4.43
same,PRISMA enrichment of interactor (log2),[3],5.98
same,PRISMA enrichment of interactor (log2),[4],5.38
same,PRISMA enrichment of interactor (log2),[5],5.66
same,PRISMA enrichment of interactor (log2),[6],9.42
same,PRISMA enrichment of interactor (log2),[7],5.46
same,PRISMA enrichment of interactor (log2),[8],6.13
same,PRISMA enrichment of interactor (log2),[9],5.42
same,PRISMA enrichment of interactor (log2),[10],6.59
same,PRISMA enrichment of interactor (log2),[11],6.96
same,PRISMA enrichment of interactor (log2),[12],6.28
same,PRISMA enrichment of interactor (log2),[13],4.16
same,PRISMA enrichment of interactor (log2),[14],6
same,PRISMA enrichment of interactor (log2),[15],4.37
same,PRISMA enrichment of interactor (log2),[16],8.18
IGGACFRVSRLSPTE [ZEB2],PRISMA enrichment of interactor (log2),[17],8.1
same,PRISMA enrichment of interactor (log2),[18],4.91
same,PRISMA enrichment of interactor (log2),[19],4.47
same,PRISMA enrichment of interactor (log2),[20],4.64
same,PRISMA enrichment of interactor (log2),[21],6.17
same,PRISMA enrichment of interactor (log2),[22],4.13
same,PRISMA enrichment of interactor (log2),[23],4.55
same,PRISMA enrichment of interactor (log2),[24],5.11
same,PRISMA enrichment of interactor (log2),[25],5.54
same,PRISMA enrichment of interactor (log2),[26],4.83
same,PRISMA enrichment of interactor (log2),[27],4.68
same,PRISMA enrichment of interactor (log2),[28],6.13
same,PRISMA enrichment of interactor (log2),[29],7.4
same,PRISMA enrichment of interactor (log2),[30],5.59
same,PRISMA enrichment of interactor (log2),[31],5.46
same,PRISMA enrichment of interactor (log2),[32],4.11
same,PRISMA enrichment of interactor (log2),[33],7.67
same,PRISMA enrichment of interactor (log2),[34],5.16
same,PRISMA enrichment of interactor (log2),[35],5.23
same,PRISMA enrichment of interactor (log2),[36],4.92
same,PRISMA enrichment of interactor (log2),[37],5.14
same,PRISMA enrichment of interactor (log2),[38],5.48
same,PRISMA enrichment of interactor (log2),[39],4.32
same,PRISMA enrichment of interactor (log2),[40],7.55
MRQGFHRRTWSKNSH [PEX2],PRISMA enrichment of interactor (log2),[41],4.78
same,PRISMA enrichment of interactor (log2),[42],4.51
same,PRISMA enrichment of interactor (log2),[43],4.48
same,PRISMA enrichment of interactor (log2),[44],4.17
same,PRISMA enrichment of interactor (log2),[45],7.73

# Three records drawn at random from the list so far, as already listed:
binder,measurement,setting,value
IGGACFRVSRLSPTE [ZEB2],PRISMA enrichment of interactor (log2),[23],4.55
RLFGQQQRATAAPLR [RNF10],PRISMA enrichment of interactor (log2),[16],8.18
IGGACFRVSRLSPTE [ZEB2],PRISMA enrichment of interactor (log2),[20],4.64
